# Hit rate of the full screen: of about 300,000 compounds, about 5,400 (1.8%) were called active. The inconclusive results got no clear call from the source; some entries with a clear call stand among them for comparison. The call rests on the fitted dose curve; tested in HEK293 cells. Potencies of inconclusive entries are doubtful fits and often do not repeat.
# Assay: qHTS for inhibitors of binding or entry into cells for Marburg Virus
# Conditions: Marburg virus pseudotyped entry inhibition, cell reporter; series mostly up to 37.8 µM
# Potency means the concentration at half of the fitted maximal effect.
row,Compound,Potency
1,Cn1c(=O)c2c(nc(SCC(=O)Nc3ccc(F)cc3)n2Cc2ccccc2)n(C)c1=O,"inconclusive: 1.12 µM [inhibitor, full curve, poor fit]"
2,CC1CCC(C(C)C)C(OC(=O)Cn2c(-c3ccc(F)cc3)[n+](C)c3ccccc32)C1 (configuration not stated),"inconclusive: 7.94 µM [inhibitor, partial curve, poor fit]"
3,CCOC(=O)c1ccc(Nc2ncnc3nc[nH]c23)cc1,"inconclusive: 23.1 µM [inhibitor, single point]"
4,OC(CNCc1ccncc1)c1ccccc1 (configuration not stated),"inconclusive: 35.5 µM [activator, single point]"
5,CCN(CC)c1ccc(NC(=O)CSc2ccsc2[N+](=O)[O-])c(C)c1,inactive
6,COc1cc(/C=C/[N+](=O)[O-])ccc1O,inactive
7,Cc1cccc(CS(=O)(=O)c2ncc(Cl)c(C(=O)NCc3ccccc3)n2)c1,active: 4.47 µM
8,CC1CN(C(=O)c2ccc(-c3ccccc3Cl)o2)CC(C)O1 (configuration not stated),"inconclusive: 2.51 µM [activator, partial curve, poor fit]"
9,COc1ccc(-n2cc(-c3ccc(C)cc3)[n+]3c2SCC3)cc1,active: 1.26 µM
10,Cc1ccc(NS(=O)(=O)c2ccc(C)c(NC(=S)NCCN3CCOCC3)c2)c(C)c1,"inconclusive: 0.224 µM [inhibitor, partial curve, poor fit]"
11,O=C1Nc2ccccc2C1(c1ccccc1)c1ccccc1,"inconclusive: 14.6 µM [inhibitor, partial curve, poor fit]"
12,CCN1/C(=C\c2ccc3cc(C)ccc3[n+]2CC)Sc2cc(C)c(C)cc21,"inconclusive: 3.55 µM [inhibitor, partial curve, poor fit]"
13,CC1Sc2ccc(S(=O)(=O)N3CCC(C(=O)NCCc4ccccc4)CC3)cc2NC1=O (configuration not stated),"inconclusive: 3.55 µM [inhibitor, partial curve, poor fit]"
14,COc1ccc(CCNC(=O)c2ccc([N+](=O)[O-])cc2Cl)cc1OC,inactive
15,Cc1cc2ncn(C3CC(=O)N(Cc4ccccc4)C3=O)c2cc1C (configuration not stated),inactive
16,CC1=NC(=O)C(N=Nc2ccccc2C(=O)O)N1c1ccccc1 (configuration not stated),inactive
17,O=C(O)C1C2CCC(O2)C1C(=O)Nc1ccc(O)cc1 (configuration not stated),"inconclusive: 20 µM [activator, single point]"
18,CNC(=O)c1ccc(NC(=O)CCNC(=O)Nc2ccccc2)cc1,"inconclusive: 3.16 µM [inhibitor, single point]"
19,COc1cc(OC)c(CN2CCC(CO)(CCOc3ccccc3)CC2)c(OC)c1,"inconclusive: 7.08 µM [inhibitor, partial curve, poor fit]"
20,Cc1cc(C(=O)CSc2nnc(Cc3ccccc3)o2)c(C)n1Cc1ccc2c(c1)OCO2,inactive
21,O=C(Nc1ccccc1)C1=C(N2CCOCC2)/C(=C/c2cccnc2)CC1,inactive
22,Cc1ccc(NC(=O)C2CCCN2S(=O)(=O)c2cccc3cccnc23)cc1C (configuration not stated),inactive
23,CC1(C)COCN1S(=O)(=O)c1ccc(C(=O)Nc2nnc(-c3ccc(Cl)s3)o2)cc1,active: 6.31 µM

row,Compound,Potency
1,COCCN(C(=O)CSc1nc2ccccc2c(=O)n1CCOC)c1c(N)n(Cc2ccccc2)c(=O)[nH]c1=O,"inconclusive: 0.794 µM [inhibitor, full curve, poor fit]"
2,Cn1c(=O)cc(SCC(=O)NCc2ccc(F)cc2)c2ccccc21,"inconclusive: 12.6 µM [inhibitor, partial curve, poor fit]"
3,COC(=O)c1nnc(C(=O)NCc2ccccc2)c2[nH]c3ccccc3c12,inactive
4,CCc1cc2c(CN3CCN(CCO)CC3)cc(=O)oc2cc1O,"inconclusive: 6.51 µM [inhibitor, single point]"
5,c1csc(-c2nn3c(-c4ccncc4)nnc3s2)c1,inactive
6,Cn1ccnc1SCC(=O)Nc1cc(Cl)ccc1Cl,"inconclusive: 35.5 µM [activator, single point]"
7,O=C(Nn1c(C2CCC2)nc2ccccc2c1=O)c1cccs1,inactive
8,COC(=O)c1ccc(OC)c(-c2c(OC)cc(OC)cc2OC)c1,"inconclusive: 6.31 µM [inhibitor, single point]"
9,CC(C)(C)c1ccc(-c2noc(CCC(=O)N3CCOCC3)n2)cc1,"inconclusive: 10 µM [inhibitor, partial curve, poor fit]"
10,Cc1ccc(CS(=O)(=O)Cc2ccc(C(=O)NCc3cccs3)o2)cc1,"inconclusive: 2.51 µM [inhibitor, full curve]"
11,CC(C)N=C(NS(=O)(=O)c1ccccc1)C(Cl)(Cl)Cl,"inconclusive: 18.4 µM [inhibitor, partial curve, poor fit]"
12,Cc1ccc(S(=O)(=O)N2CCCCC2)cc1NC(=O)C1CC(=O)N(Cc2ccco2)C1 (configuration not stated),"inconclusive: 17.8 µM [activator, partial curve, poor fit]"
13,O=C(CSCc1ccccc1Br)N/N=C/c1ccccc1C(=O)O,"inconclusive: 3.98 µM [activator, single point]"
14,NS(=O)(=O)c1cccc(NC(=O)COC(=O)CN2C(=O)c3ccccc3C2=O)c1,inactive
15,CC(=O)Nc1sc2c(c1C(c1ccccn1)N1CCN(C)CC1)CCCC2 (configuration not stated),inactive
16,COc1ccc(C(=O)Nc2ccnn2C2CCN(C(=O)C3CCOC3)CC2)cc1 (configuration not stated),inactive
17,CN(C)/C=C/c1onc(-c2ccccc2Cl)c1C#N,"inconclusive: 0.562 µM [activator, partial curve, poor fit]"
18,COc1ccc(Cn2c(SC)nc3ccccc32)cc1[N+](=O)[O-],"inconclusive: 13 µM [inhibitor, single point]"
19,Cc1c(CCOC(=O)C23CC4CC(CC(C)(C4)C2)C3)sc[n+]1Cc1ccccc1,"inconclusive: 29.1 µM [inhibitor, single point]"
20,CSc1ncccc1C(=O)OCn1nnc2ccccc2c1=O,"inconclusive: 0.231 µM [inhibitor, single point]"
21,NC(N)=Nc1ccc(C=C2C=Cc3ccccc32)cc1,"inconclusive: 0.501 µM [activator, partial curve, poor fit]"
22,C=CCNC(=O)C(=O)Nc1ccc2c(c1)N(S(=O)(=O)c1cccs1)CCC2,"inconclusive: 35.5 µM [inhibitor, single point]"
23,CCN(CC)S(=O)(=O)c1cccc(-c2cn3cc(C)ccc3n2)c1,inactive

# Quoted at random: 2 compounds from above, in no set order.
row,Compound,Potency
22,C=CCNC(=O)C(=O)Nc1ccc2c(c1)N(S(=O)(=O)c1cccs1)CCC2,"inconclusive: 35.5 µM [inhibitor, single point]"
13,O=C(CSCc1ccccc1Br)N/N=C/c1ccccc1C(=O)O,"inconclusive: 3.98 µM [activator, single point]"

# (cont.)

row,Compound,Potency
1,Cc1ccc(-c2csc(N(CC3CCCO3)C(=O)c3ccco3)n2)cc1 (configuration not stated),"inconclusive: 4.11 µM [inhibitor, single point]"
2,COc1cccc(NC(=O)CCNC(=O)Cn2ccc3ccccc3c2=O)c1,"inconclusive: 35.5 µM [activator, single point]"
3,CN1CCC(N(C)C(=O)c2cc(S(=O)(=O)N3CCOCC3)ccc2Cl)CC1,"inconclusive: 2.82 µM [inhibitor, single point]"
4,c1ccc(COc2ccc(OCCN3CCCCC3)cc2)cc1,"inconclusive: 29.1 µM [inhibitor, single point]"
5,CCCCn1c(CN(C)Cc2ccccc2)nc2c1c(=O)n(C)c(=O)n2C,"inconclusive: 25.9 µM [inhibitor, partial curve, poor fit]"
6,Cc1ccc(C)c(NC(=O)c2cc(=O)c3cc(C)cc(C)c3o2)c1,"inconclusive: 7.08 µM [activator, full curve, poor fit]"
7,COc1cccc(NC(=S)N/N=C2/CCCCc3ccccc32)c1,inactive
8,CCCC(=O)N1CCN(c2ccc(NC(=O)c3ccc([N+](=O)[O-])o3)cc2)CC1,"inconclusive: 4.47 µM [inhibitor, single point]"
9,CC1(C)Cc2cccc(OCC(=O)Nc3ccc(OCC(N)=O)cc3)c2O1,"inconclusive: 1.58 µM [inhibitor, partial curve, poor fit]"
10,O=C(Nc1nc2c(s1)CCCC2)c1ccc(Br)s1,"inconclusive: 0.58 µM [activator, partial curve]"
11,CN1C(=O)NC(=O)/C(=C\C=C\c2ccccc2[N+](=O)[O-])C1=O,"inconclusive: 12.6 µM [inhibitor, partial curve, poor fit]"
12,COc1ccc(C)cc1N(CC(=O)N1CCOCC1)S(C)(=O)=O,"inconclusive: 1.26 µM [inhibitor, single point]"
13,O=C(COc1cccc(C(F)(F)F)c1)N1CCN(c2ccc(O)cc2)CC1,"inconclusive: 11.2 µM [inhibitor, single point]"
14,COc1ccc([N+](=O)[O-])cc1NC(=O)COC(=O)c1ccccc1C(=O)c1ccccc1,"inconclusive: 22.4 µM [inhibitor, single point]"
15,COc1ccc(O)c(-c2[nH]ncc2C(=O)c2ccccc2C)c1,"inconclusive: 31.6 µM [inhibitor, single point]"
16,S=C1NC(c2cccs2)=CC(c2ccc(Br)cc2)N1 (configuration not stated),"inconclusive: 5.62 µM [activator, single point]"
17,O=C(CSc1nnc(Nc2ccccc2F)s1)Nc1cccc(S(=O)(=O)N2CCCCC2)c1,"inconclusive: 35.5 µM [inhibitor, single point]"
18,CCOc1ccc(CCNC(=O)c2ccc(F)c(S(=O)(=O)N3CCOCC3)c2)cc1OCC,inactive
19,CC1C(=O)C(C)C(c2cc(Br)ccc2O)NC1c1cc(Br)ccc1O (configuration not stated),"inconclusive: 20 µM [inhibitor, partial curve, poor fit]"
20,O=C(CSc1ccccc1)N1CCN(c2ccccc2)CC1,inactive
21,COc1ccc(/C=C/C(=O)Nc2ccc3c(c2)OCCO3)cc1OC,"inconclusive: 16.4 µM [inhibitor, single point]"

# Rewritten bar-delimited: two of the compounds above
row | Compound | Potency
1 | Cn1c(=O)c2c(nc(SCC(=O)Nc3ccc(F)cc3)n2Cc2ccccc2)n(C)c1=O | inconclusive: 1.12 µM [inhibitor, full curve, poor fit]
18 | CCOc1ccc(CCNC(=O)c2ccc(F)c(S(=O)(=O)N3CCOCC3)c2)cc1OCC | inactive
